Experimental findings from paper PMC12223117 are described below.

Chains of the proteins cited; added tags and fusions are not shown.
UniProt H0Y354: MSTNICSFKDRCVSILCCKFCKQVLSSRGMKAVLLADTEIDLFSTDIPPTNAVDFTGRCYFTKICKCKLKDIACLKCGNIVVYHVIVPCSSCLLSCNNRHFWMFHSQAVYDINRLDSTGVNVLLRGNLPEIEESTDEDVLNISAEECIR

Results are given in words; binding and its absence hold for the method and conditions named. Binding seen in cells or lysates may run through a third protein.

In this experiment the target is HA-tagged FAM72C (human) (UniProt H0Y354). Put plainly: co-IP; anti-HA on protein G beads from lysates of FAM72-/- HCT116 cells expressing HA-FAM72A/B/C/D, cells treated with 20 uM MG132 for 6 h; lysis in 40 mM Tris-HCl pH 7.5, 150 mM NaCl, 1 mM EDTA, 10 mM NaF, 1% NP-40 substitute; overnight; blot for UNG.

Take “Uracil DNA glycosylase 2 (UNG2), endogenous (from UniProt P13051-1 1-313)”: the binding entry is recorded as “no binding”.
